According to publication PMC5415203:
No constants are given. Whether binding was seen depends on the method and setting. Binding seen in cells or lysates may run through a third protein. Some entries that bind do so weakly or less than the wild type.

Amino acid sequences for entries named in this document (tags omitted).
UniProt Q92878: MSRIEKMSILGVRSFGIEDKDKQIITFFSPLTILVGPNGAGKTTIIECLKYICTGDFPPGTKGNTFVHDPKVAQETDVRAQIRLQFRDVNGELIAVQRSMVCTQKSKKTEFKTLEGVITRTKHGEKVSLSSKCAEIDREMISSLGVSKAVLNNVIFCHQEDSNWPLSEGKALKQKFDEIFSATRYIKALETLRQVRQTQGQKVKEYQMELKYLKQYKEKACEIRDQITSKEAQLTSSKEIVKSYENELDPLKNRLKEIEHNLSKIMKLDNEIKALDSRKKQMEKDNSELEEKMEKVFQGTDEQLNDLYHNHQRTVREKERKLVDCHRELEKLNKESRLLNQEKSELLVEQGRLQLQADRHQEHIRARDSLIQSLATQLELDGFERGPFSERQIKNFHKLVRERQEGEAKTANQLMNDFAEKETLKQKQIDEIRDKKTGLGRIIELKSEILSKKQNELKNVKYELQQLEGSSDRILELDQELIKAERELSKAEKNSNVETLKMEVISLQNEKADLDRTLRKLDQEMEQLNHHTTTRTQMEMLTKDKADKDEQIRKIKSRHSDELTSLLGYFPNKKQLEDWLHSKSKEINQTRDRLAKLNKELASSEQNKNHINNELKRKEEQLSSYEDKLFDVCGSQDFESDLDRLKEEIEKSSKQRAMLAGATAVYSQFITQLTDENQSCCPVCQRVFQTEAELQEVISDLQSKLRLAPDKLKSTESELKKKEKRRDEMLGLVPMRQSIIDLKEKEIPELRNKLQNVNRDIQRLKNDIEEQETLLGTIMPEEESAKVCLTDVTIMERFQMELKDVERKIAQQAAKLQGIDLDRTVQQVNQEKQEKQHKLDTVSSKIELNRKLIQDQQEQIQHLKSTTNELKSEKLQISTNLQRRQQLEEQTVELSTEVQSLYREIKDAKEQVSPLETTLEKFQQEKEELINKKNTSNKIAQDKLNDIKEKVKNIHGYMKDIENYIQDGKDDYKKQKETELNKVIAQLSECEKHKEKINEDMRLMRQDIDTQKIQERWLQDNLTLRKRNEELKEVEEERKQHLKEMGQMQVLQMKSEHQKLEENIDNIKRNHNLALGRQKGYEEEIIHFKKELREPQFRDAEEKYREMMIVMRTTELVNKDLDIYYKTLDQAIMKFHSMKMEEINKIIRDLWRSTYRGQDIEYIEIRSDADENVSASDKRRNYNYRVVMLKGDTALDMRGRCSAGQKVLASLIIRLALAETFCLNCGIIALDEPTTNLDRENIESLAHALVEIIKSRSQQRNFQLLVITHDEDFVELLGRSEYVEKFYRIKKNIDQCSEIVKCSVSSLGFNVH
UniProt Q9QR71: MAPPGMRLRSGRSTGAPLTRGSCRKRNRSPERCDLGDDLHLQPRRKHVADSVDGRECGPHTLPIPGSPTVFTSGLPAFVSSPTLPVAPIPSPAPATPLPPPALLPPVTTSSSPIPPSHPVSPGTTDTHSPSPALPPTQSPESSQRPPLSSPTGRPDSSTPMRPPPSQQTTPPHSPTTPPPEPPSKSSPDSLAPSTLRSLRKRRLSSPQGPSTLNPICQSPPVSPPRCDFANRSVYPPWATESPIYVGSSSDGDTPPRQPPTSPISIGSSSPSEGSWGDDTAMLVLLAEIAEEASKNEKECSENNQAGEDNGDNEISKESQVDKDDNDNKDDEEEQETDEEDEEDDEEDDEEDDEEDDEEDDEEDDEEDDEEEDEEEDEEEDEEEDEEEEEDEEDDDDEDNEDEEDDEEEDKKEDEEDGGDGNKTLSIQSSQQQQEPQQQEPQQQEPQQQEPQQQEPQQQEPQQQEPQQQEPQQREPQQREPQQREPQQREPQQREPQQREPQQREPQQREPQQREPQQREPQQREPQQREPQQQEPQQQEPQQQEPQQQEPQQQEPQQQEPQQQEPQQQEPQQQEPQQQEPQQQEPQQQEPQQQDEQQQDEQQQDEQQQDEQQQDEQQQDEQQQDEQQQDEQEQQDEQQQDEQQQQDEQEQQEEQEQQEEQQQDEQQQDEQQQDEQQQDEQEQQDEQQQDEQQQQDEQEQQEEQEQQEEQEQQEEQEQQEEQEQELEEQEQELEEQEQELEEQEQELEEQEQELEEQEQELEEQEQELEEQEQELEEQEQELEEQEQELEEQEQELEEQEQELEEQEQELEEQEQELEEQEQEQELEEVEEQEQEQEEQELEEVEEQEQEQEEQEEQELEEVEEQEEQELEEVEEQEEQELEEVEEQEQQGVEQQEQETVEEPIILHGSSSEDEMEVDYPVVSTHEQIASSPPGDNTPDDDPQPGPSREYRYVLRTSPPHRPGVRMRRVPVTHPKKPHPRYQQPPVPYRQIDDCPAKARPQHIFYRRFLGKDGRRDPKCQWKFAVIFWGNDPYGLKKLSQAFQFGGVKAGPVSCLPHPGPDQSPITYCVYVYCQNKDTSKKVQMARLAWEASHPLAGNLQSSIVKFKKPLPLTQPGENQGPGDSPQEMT
UniProt O60934: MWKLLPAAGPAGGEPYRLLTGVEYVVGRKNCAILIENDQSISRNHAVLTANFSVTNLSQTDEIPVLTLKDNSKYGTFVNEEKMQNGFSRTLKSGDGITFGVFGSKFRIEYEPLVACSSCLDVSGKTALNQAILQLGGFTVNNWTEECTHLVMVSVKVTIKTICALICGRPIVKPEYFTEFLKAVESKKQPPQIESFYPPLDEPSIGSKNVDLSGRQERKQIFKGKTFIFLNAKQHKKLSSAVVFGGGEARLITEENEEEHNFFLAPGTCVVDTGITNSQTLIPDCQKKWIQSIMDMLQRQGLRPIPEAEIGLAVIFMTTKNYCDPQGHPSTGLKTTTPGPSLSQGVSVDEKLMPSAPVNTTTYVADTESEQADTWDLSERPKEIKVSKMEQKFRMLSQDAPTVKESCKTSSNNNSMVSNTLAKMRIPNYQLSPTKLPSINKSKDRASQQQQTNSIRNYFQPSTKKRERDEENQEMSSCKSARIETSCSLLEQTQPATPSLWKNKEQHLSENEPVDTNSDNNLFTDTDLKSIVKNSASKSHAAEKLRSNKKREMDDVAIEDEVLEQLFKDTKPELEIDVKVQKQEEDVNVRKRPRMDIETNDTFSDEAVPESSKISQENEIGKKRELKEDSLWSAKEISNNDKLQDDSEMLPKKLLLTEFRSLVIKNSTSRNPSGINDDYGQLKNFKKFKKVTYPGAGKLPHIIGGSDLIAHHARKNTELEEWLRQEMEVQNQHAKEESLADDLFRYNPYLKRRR

Assays:
[1] = molecular target: Rad50, endogenous (human (endogenous in BC3, BCBL-1, BrK.219, TrK.219, HEK293, HEK293T)) (UniProt Q92878); experiment: co-IP; endogenous proteins; whole cell lysates of BC3, BCBL-1 and BrK.219 cells in TBS-T buffer, treated with benzonase; overnight with anti-Rad50-antibody-coupled beads or IgG-control beads; immunoblot for LANA
[2] = molecular target: KSHV Latency-Associated Nuclear Antigen (LANA), endogenous in KSHV-infected cells (Kaposi Sarcoma Herpesvirus (KSHV, HHV-8)) (UniProt Q9QR71); experiment: co-IP; endogenous proteins; whole cell lysates of KSHV-infected cells (BC3, BCBL-1, BrK.219, TrK.219) in TBS-T buffer, treated with benzonase; overnight with anti-LANA-antibody-coupled sepharose beads or IgG-control beads; immunoblot
[3] = molecular target: KSHV Latency-Associated Nuclear Antigen (LANA), endogenous in KSHV-infected cells (Kaposi Sarcoma Herpesvirus (KSHV, HHV-8)) (UniProt Q9QR71); experiment: co-IP; endogenous proteins; cytoplasmic extract of BCBL-1 cells (NE-PER kit); overnight with LANA-antibody or IgG-control beads; immunoblot
[4] = molecular target: KSHV Latency-Associated Nuclear Antigen (LANA), endogenous in KSHV-infected cells (Kaposi Sarcoma Herpesvirus (KSHV, HHV-8)) (UniProt Q9QR71); experiment: co-IP; endogenous proteins; whole cell lysates of KSHV-infected cells (BC3, BCBL-1, BrK.219, TrK.219) in TBS-T buffer, treated with benzonase; overnight with anti-LANA-antibody-coupled sepharose beads or IgG-control beads; immunoblot; remark: listed apart in the source

**Q.** Which binding [1] does the source give for “KSHV Latency-Associated Nuclear Antigen (LANA), endogenous in KSHV-infected cells (from UniProt Q9QR71 1-1129)” here?
**A.** binds

**Q.** For “NBS1, endogenous (from UniProt O60934 1-754)”, which binding [2] is on record?
**A.** binds

**Q.** Which results are given for “Rad50, endogenous (from UniProt Q92878 1-1312)”?
**A.** binding [3]: binds; binding [2]: binds

B1: CARD9, endogenous (protein, UniProt Q9H257 1-536)
chain: MSDYENDDECWSVLEGFRVTLTSVIDPSRITPYLRQCKVLNPDDEEQVLSDPNLVIRKRKVGVLLDILQRTGHKGYVAFLESLELYYPQLYKKVTGKEPARVFSMIIDASGESGLTQLLMTEVMKLQKKVQDLTALLSSKDDFIKELRVKDSLLRKHQERVQRLKEECEAGSRELKRCKEENYDLAMRLAHQSEEKGAALMRNRDLQLEIDQLKHSLMKAEDDCKVERKHTLKLRHAMEQRPSQELLWELQQEKALLQARVQELEASVQEGKLDRSSPYIQVLEEDWRQALRDHQEQANTIFSLRKDLRQGEARRLRCMEEKEMFELQCLALRKDSKMYKDRIEAILLQMEEVAIERDQAIATREELHAQHARGLQEKDALRKQVRELGEKADELQLQVFQCEAQLLAVEGRLRRQQLETLVLSSDLEDGSPRRSQELSLPQDLEDTQLSDKGCLAGGGSPKQPFAALHQEQVLRNPHDAGLSSGEPPEKERRRLKESFENYRRKRALRKMQKGWRQGEEDRENTTGSDNTDTEGS
**Q.** B1 was tested. Which binding [4] did it give?
**A.** binds
